# Laboratory results as given in the supplement of paper PMC8728848.
# This is one part of the list.
# Legend:
# Assay in all cases: glycan array binding signal (z-score within array); higher = stronger binding
# Details in all cases: glycan notation: IUPAC condensed, linker removed
# [1] = biological target: Neu5Ac(a2-3)Gal(b1-3)GalNAc(b1-4)[Neu5Ac(a2-3)]Gal(b1-4)Glc
# How it was run: (§1)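 From the Consortium for Functional Glycomics database, 3228 arrays were curated, keeping only those whose protein sequence was available. Binding is given as a within-array Z-score averaged across arrays sharing a protein sequence and across linkers. Negative Z-scores can be read as non-binding.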
# [2] = biological target: Neu5Ac(a2-3)Gal(b1-3)GalNAc(b1-4)[Neu5Ac(a2-8)Neu5Ac(a2-3)]Gal(b1-4)Glc
# How it was run: as §1
# [3] = biological target: Neu5Ac(a2-3)Gal(b1-3)GalNAc6S
# How it was run: as §1
# [4] = biological target: Neu5Ac(a2-3)Gal(b1-3)GlcNAc
# How it was run: as §1
# [5] = biological target: Neu5Ac(a2-3)Gal(b1-3)GlcNAc(b1-2)Man
# How it was run: as §1
# [6] = biological target: Neu5Ac(a2-3)Gal(b1-3)GlcNAc(b1-2)Man(a1-3)[GlcNAc(b1-4)][Neu5Ac(a2-3)Gal(b1-3)GlcNAc(b1-2)Man(a1-6)]Man(b1-4)GlcNAc(b1-4)GlcNAc
# How it was run: as §1
# [7] = biological target: Neu5Ac(a2-3)Gal(b1-3)GlcNAc(b1-2)Man(a1-3)[Neu5Ac(a2-3)Gal(b1-3)GlcNAc(b1-2)Man(a1-6)]Man(b1-4)GlcNAc(b1-4)GlcNAc
# How it was run: as §1
# [8] = biological target: Neu5Ac(a2-3)Gal(b1-3)GlcNAc(b1-2)[Neu5Ac(a2-3)Gal(b1-3)GlcNAc(b1-4)]Man(a1-6)[Neu5Ac(a2-3)Gal(b1-3)GlcNAc(b1-2)Man(a1-3)]Man(b1-4)GlcNAc(b1-4)GlcNAc
# How it was run: as §1
# [9] = biological target: Neu5Ac(a2-3)Gal(b1-3)GlcNAc(b1-3)Gal(b1-3)GlcNAc
# How it was run: as §1
# [10] = biological target: Neu5Ac(a2-3)Gal(b1-3)GlcNAc(b1-3)Gal(b1-4)GlcNAc
# How it was run: as §1
# [11] = biological target: Neu5Ac(a2-3)Gal(b1-3)GlcNAc(b1-3)GalNAc
# How it was run: as §1
# [12] = biological target: Neu5Ac(a2-3)Gal(b1-3)GlcNAc(b1-6)GalNAc
# How it was run: as §1
# [13] = biological target: Neu5Ac(a2-3)Gal(b1-3)GlcNAc6S
# How it was run: as §1
# [14] = biological target: Neu5Ac(a2-3)Gal(b1-3)[Fuc(a1-4)]GlcNAc
# How it was run: as §1
# [15] = biological target: Neu5Ac(a2-3)Gal(b1-3)[Fuc(a1-4)]GlcNAc(b1-3)Gal(b1-3)[Fuc(a1-4)]GlcNAc
# How it was run: as §1
# [16] = biological target: Neu5Ac(a2-3)Gal(b1-3)[Fuc(a1-4)]GlcNAc(b1-3)Gal(b1-4)[Fuc(a1-3)]GlcNAc
# How it was run: as §1
# [17] = biological target: Neu5Ac(a2-3)Gal(b1-3)[GlcNAc(b1-6)]GalNAc
# How it was run: as §1
# [18] = biological target: Neu5Ac(a2-3)Gal(b1-3)[Neu5Ac(a2-3)Gal(b1-4)]GlcNAc
# How it was run: as §1
# [19] = biological target: Neu5Ac(a2-3)Gal(b1-3)[Neu5Ac(a2-6)]GalNAc
# How it was run: as §1
# [20] = biological target: Neu5Ac(a2-3)Gal(b1-3)[Neu5Ac(a2-6)]GlcNAc(b1-3)[Fuc(a1-3)[Gal(b1-4)]GlcNAc(b1-6)]Gal(b1-4)Glc
# How it was run: as §1
# [21] = biological target: Neu5Ac(a2-3)Gal(b1-3)]Neu5Ac(a2-3)Gal(b1-4)]GlcNAc
# How it was run: as §1
# Neu5Ac(a2-3)Gal(b1-4)Glc = biological target: Neu5Ac(a2-3)Gal(b1-4)Glc
# How it was run: as §1
# [22] = biological target: Neu5Ac(a2-3)Gal(b1-4)GlcNAc
# How it was run: as §1
# [23] = biological target: Neu5Ac(a2-3)Gal(b1-4)GlcNAc(b1-2)Man
# How it was run: as §1
# [24] = biological target: Neu5Ac(a2-3)Gal(b1-4)GlcNAc(b1-2)Man(a1-3)[GlcNAc(b1-2)Man(b1-4)GlcNAc(b1-2)Man(a1-6)]Man(b1-4)GlcNAc(b1-4)GlcNAc
# How it was run: as §1
# [25] = biological target: Neu5Ac(a2-3)Gal(b1-4)GlcNAc(b1-2)Man(a1-3)[GlcNAc(b1-4)][Neu5Ac(a2-3)Gal(b1-4)GlcNAc(b1-2)Man(a1-6)]Man(b1-4)GlcNAc(b1-4)GlcNAc
# How it was run: as §1
# [26] = biological target: Neu5Ac(a2-3)Gal(b1-4)GlcNAc(b1-2)Man(a1-3)[Neu5Ac(a2-3)Gal(b1-4)GlcNAc(b1-2)Man(a1-6)]Man(b1-4)GlcNAc(b1-4)GlcNAc
# How it was run: as §1
# [27] = biological target: Neu5Ac(a2-3)Gal(b1-4)GlcNAc(b1-2)Man(a1-3)[Neu5Ac(a2-3)Gal(b1-4)GlcNAc(b1-2)Man(a1-6)]Man(b1-4)GlcNAc(b1-4)[Fuc(a1-6)]GlcNAc
# How it was run: as §1
# [28] = biological target: Neu5Ac(a2-3)Gal(b1-4)GlcNAc(b1-2)Man(a1-3)[Neu5Ac(a2-6)Gal(b1-4)GlcNAc(b1-2)Man(a1-6)]Man(b1-4)GlcNAc(b1-4)GlcNAc
# How it was run: as §1
# [29] = biological target: Neu5Ac(a2-3)Gal(b1-4)GlcNAc(b1-2)[Neu5Ac(a2-3)Gal(b1-4)GlcNAc(b1-4)]Man(a1-3)[GlcNAc(b1-4)][Neu5Ac(a2-3)Gal(b1-4)GlcNAc(b1-2)[Neu5Ac(a2-3)Gal(b1-4)GlcNAc(b1-6)]Man(a1-6)]Man(b1-4)GlcNAc(b1-4)GlcNAc
# How it was run: as §1
# [30] = biological target: Neu5Ac(a2-3)Gal(b1-4)GlcNAc(b1-2)[Neu5Ac(a2-3)Gal(b1-4)GlcNAc(b1-4)]Man(a1-3)[GlcNAc(b1-4)][Neu5Ac(a2-3)Gal(b1-4)GlcNAc(b1-4)Man(a1-6)]Man(b1-4)GlcNAc(b1-4)GlcNAc
# How it was run: as §1
# [31] = biological target: Neu5Ac(a2-3)Gal(b1-4)GlcNAc(b1-2)[Neu5Ac(a2-3)Gal(b1-4)GlcNAc(b1-6)]Man(a1-6)[Neu5Ac(a2-3)Gal(b1-4)GlcNAc(b1-2)Man(a1-3)][GlcNAc(b1-4)]Man(b1-4)GlcNAc(b1-4)GlcNAc
# How it was run: as §1
# [32] = biological target: Neu5Ac(a2-3)Gal(b1-4)GlcNAc(b1-3)Gal
# How it was run: as §1
# [33] = biological target: Neu5Ac(a2-3)Gal(b1-4)GlcNAc(b1-3)Gal(b1-3)GlcNAc
# How it was run: as §1
# [34] = biological target: Neu5Ac(a2-3)Gal(b1-4)GlcNAc(b1-3)Gal(b1-4)GlcNAc
# How it was run: as §1
# [35] = biological target: Neu5Ac(a2-3)Gal(b1-4)GlcNAc(b1-3)Gal(b1-4)GlcNAc(b1-2)Man(a1-3)[Neu5Ac(a2-3)Gal(b1-4)GlcNAc(b1-3)Gal(b1-4)GlcNAc(b1-2)Man(a1-6)]Man(b1-4)GlcNAc(b1-4)GlcNAc
# How it was run: as §1
# [36] = biological target: Neu5Ac(a2-3)Gal(b1-4)GlcNAc(b1-3)Gal(b1-4)GlcNAc(b1-3)Gal(b1-4)GlcNAc
# How it was run: as §1
# [37] = biological target: Neu5Ac(a2-3)Gal(b1-4)GlcNAc(b1-3)Gal(b1-4)GlcNAc(b1-3)Gal(b1-4)GlcNAc(b1-2)Man(a1-3)[Neu5Ac(a2-3)Gal(b1-4)GlcNAc(b1-3)Gal(b1-4)GlcNAc(b1-3)Gal(b1-4)GlcNAc(b1-2)Man(a1-6)]GalNAc
# How it was run: as §1
# [38] = biological target: Neu5Ac(a2-3)Gal(b1-4)GlcNAc(b1-3)Gal(b1-4)GlcNAc(b1-3)GalNAc
# How it was run: as §1
# [39] = biological target: Neu5Ac(a2-3)Gal(b1-4)GlcNAc(b1-3)Gal(b1-4)GlcNAc(b1-3)[Neu5Ac(a2-3)Gal(b1-4)GlcNAc(b1-3)Gal(b1-4)GlcNAc(b1-6)]GalNAc
# How it was run: as §1
# [40] = biological target: Neu5Ac(a2-3)Gal(b1-4)GlcNAc(b1-3)Gal(b1-4)GlcNAc(b1-6)[Gal(b1-3)]GalNAc
# How it was run: as §1
# [41] = biological target: Neu5Ac(a2-3)Gal(b1-4)GlcNAc(b1-3)Gal(b1-4)[Fuc(a1-3)]GlcNAc
# How it was run: as §1
# [42] = biological target: Neu5Ac(a2-3)Gal(b1-4)GlcNAc(b1-3)GalNAc
# How it was run: as §1
# [43] = biological target: Neu5Ac(a2-3)Gal(b1-4)GlcNAc(b1-3)[Neu5Ac(a2-3)Gal(b1-4)GlcNAc(b1-6)]GalNAc
# How it was run: as §1
# [44] = biological target: Neu5Ac(a2-3)Gal(b1-4)GlcNAc(b1-6)GalNAc
# How it was run: as §1
# [45] = biological target: Neu5Ac(a2-3)Gal(b1-4)GlcNAc(b1-6)[Gal(b1-3)]GalNAc
# How it was run: as §1
# [46] = biological target: Neu5Ac(a2-3)Gal(b1-4)GlcNAc(b1-6)[Neu5Ac(a2-3)Gal(b1-3)]GalNAc
# How it was run: as §1
# [47] = biological target: Neu5Ac(a2-3)Gal(b1-4)GlcNAc6S
# How it was run: as §1
# [48] = biological target: Neu5Ac(a2-3)Gal(b1-4)[Fuc(a1-3)]GlcNAc
# How it was run: as §1
# [49] = biological target: Neu5Ac(a2-3)Gal(b1-4)[Fuc(a1-3)]GlcNAc(b1-2)Man
# How it was run: as §1
# [50] = biological target: Neu5Ac(a2-3)Gal(b1-4)[Fuc(a1-3)]GlcNAc(b1-3)Gal
# How it was run: as §1
# [51] = biological target: Neu5Ac(a2-3)Gal(b1-4)[Fuc(a1-3)]GlcNAc(b1-3)Gal(b1-4)GlcNAc
# How it was run: as §1
# [52] = biological target: Neu5Ac(a2-3)Gal(b1-4)[Fuc(a1-3)]GlcNAc(b1-3)Gal(b1-4)[Fuc(a1-3)]GlcNAc(b1-3)Gal(b1-4)[Fuc(a1-3)]GlcNAc
# How it was run: as §1
binder,measurement,setting,value
KILRGVCKKIMRTFLRRISKDILTGKK [NK2 (Sus scrofa)],glycan array binding signal (z-score),[1],-0.1
same,glycan array binding signal (z-score),[2],-0.346
same,glycan array binding signal (z-score),[3],0.426
same,glycan array binding signal (z-score),[4],0.313
same,glycan array binding signal (z-score),[5],0.883
same,glycan array binding signal (z-score),[6],-0.374
same,glycan array binding signal (z-score),[7],-1.53
same,glycan array binding signal (z-score),[8],0.668
same,glycan array binding signal (z-score),[9],0.2
same,glycan array binding signal (z-score),[10],0.471
same,glycan array binding signal (z-score),[11],1.02
same,glycan array binding signal (z-score),[12],1.26
same,glycan array binding signal (z-score),[13],0.581
same,glycan array binding signal (z-score),[14],-0.121
same,glycan array binding signal (z-score),[15],-0.148
same,glycan array binding signal (z-score),[16],-0.135
same,glycan array binding signal (z-score),[17],1.32
same,glycan array binding signal (z-score),[18],-0.225
same,glycan array binding signal (z-score),[19],-0.067
same,glycan array binding signal (z-score),[20],-0.929
same,glycan array binding signal (z-score),[21],0.144
same,glycan array binding signal (z-score),Neu5Ac(a2-3)Gal(b1-4)Glc,-0.55
same,glycan array binding signal (z-score),[22],-0.275
same,glycan array binding signal (z-score),[23],1.2
same,glycan array binding signal (z-score),[24],-0.411
same,glycan array binding signal (z-score),[25],0.23
same,glycan array binding signal (z-score),[26],0.832
same,glycan array binding signal (z-score),[27],0.413
same,glycan array binding signal (z-score),[28],-0.878
same,glycan array binding signal (z-score),[29],0.273
same,glycan array binding signal (z-score),[30],0.289
same,glycan array binding signal (z-score),[31],0.54
same,glycan array binding signal (z-score),[32],-0.06
same,glycan array binding signal (z-score),[33],-0.837
same,glycan array binding signal (z-score),[34],-0.624
same,glycan array binding signal (z-score),[35],-0.106
same,glycan array binding signal (z-score),[36],-0.106
same,glycan array binding signal (z-score),[37],-0.628
same,glycan array binding signal (z-score),[38],2.37
same,glycan array binding signal (z-score),[39],-1.13
same,glycan array binding signal (z-score),[40],0.263
same,glycan array binding signal (z-score),[41],0.392
same,glycan array binding signal (z-score),[42],-0.302
same,glycan array binding signal (z-score),[43],0.137
same,glycan array binding signal (z-score),[44],1.14
same,glycan array binding signal (z-score),[45],0.125
same,glycan array binding signal (z-score),[46],0.062
same,glycan array binding signal (z-score),[47],1.75
same,glycan array binding signal (z-score),[48],-0.977
same,glycan array binding signal (z-score),[49],0.6
same,glycan array binding signal (z-score),[50],-0.39
same,glycan array binding signal (z-score),[51],0.415
same,glycan array binding signal (z-score),[52],-0.611

# In a second layout: results already given.
binder	measurement	setting	value
KILRGVCKKIMRTFLRRISKDILTGKK [NK2 (Sus scrofa)]	glycan array binding signal (z-score)	[1]	-0.1
same	glycan array binding signal (z-score)	[31]	0.54
